Experimental data: patent publication US20100112600A1, “Methods and compositions for modulating synapse formation” (priority 2006, published 2010)
For at least one compound, name, drawing or mass did not settle the structure.

Columns and labels:
Type in all cases: cell-based, rat
MEF2A Ser408 = assay: Immunoblot of phospho-Ser408 MEF2A in depolarized granule neurons; settings: granule neurons depolarized with 25 mM KCl; Nim 20 μM, CsA 4 μM
endogenous MEF2A = assay: Immunoblot of sumoylation and acetylation of endogenous MEF2A in depolarized granule neurons
[1] = test system: granule neuron dendritic claws; assay: Dendritic claw number of granule neurons in organotypic cerebellar slices; settings: cerebellar slices treated with Nim 20 μM or CsA 4 μM vs vehicle (DMSO)

Q: How did the “depolarization-induced dephosphorylation of MEF2A at Ser408” value (MEF2A Ser408) turn out when `COCCOC(=O)C1=C(C)NC(C)=C(C(=O)OC(C)C)C1c1cccc([N+](=O)[O-])c1` (centres unmarked) [nimodipine] was run?
A: blocked

Q: And the “acetylation of endogenous MEF2A” value (endogenous MEF2A; depolarized neurons)?
A: decreased

Q: And the “sumoylation of endogenous MEF2A” value (endogenous MEF2A; depolarized neurons (25 mM KCl))?
A: increased

Q: And the dendritic claw number [1]?
A: increased

Q: What about the dendritic claw number ([1]; listed as Nim) of the same molecule?
A: significantly increased
